Laboratory results published in PMC8705867.

Chains of the proteins cited; added tags and fusions are not shown. Lines headed by an entry give the natural chain unless they say otherwise; changes in a name come on top.
UniProt Q84WN0: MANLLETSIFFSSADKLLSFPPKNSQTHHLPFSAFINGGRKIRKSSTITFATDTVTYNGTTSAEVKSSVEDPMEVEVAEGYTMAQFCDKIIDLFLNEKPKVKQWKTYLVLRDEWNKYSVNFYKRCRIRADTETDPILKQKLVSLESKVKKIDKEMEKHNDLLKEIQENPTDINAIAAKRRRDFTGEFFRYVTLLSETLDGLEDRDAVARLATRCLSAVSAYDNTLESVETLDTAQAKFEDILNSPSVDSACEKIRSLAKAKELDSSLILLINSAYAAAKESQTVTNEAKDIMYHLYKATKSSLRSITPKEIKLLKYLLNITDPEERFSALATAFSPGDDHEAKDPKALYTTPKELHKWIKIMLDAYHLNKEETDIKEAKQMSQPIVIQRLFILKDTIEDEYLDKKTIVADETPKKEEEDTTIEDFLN

Target: PD1-HA tag fusion protein (Arabidopsis thaliana) (UniProt Q84WN0)
Test: co-IP; total leaf protein of two-week-old transgenic seedlings expressing PD1-HA (wild type as control); Anti-HA-tag mAb-Magnetic Beads; blots with antibodies for HA and PEP-β

- binding: binds
B1: PEP core subunit β (protein, UniProt P50546 1-1072)
chain: MLGDEKEGTSAIPGFNQIQFEGFYRFIDQGLIEELAKFPKIEDIDHEIEFQLFVETYQLVEPLIKERDAVYESLTYSSELYVSAGLIWKTSRNMQEQRIFIGNIPLMNSLGTSIVNGIYRIVINQILQSPGIYYQSELDHNGISVYTGTIISDWGGRLELEIDKKARIWARVSRKQKISILVLSSAMGLNLREILENVCYPEIFLSFLTDKEKKKIGSKENAILEFYQQFSCVGGDPIFSESLCKELQKKFFHQRCELGRIGRRNINWRLNLNIPQNNIFLLPRDVLAAADHLIGMKFGMGTLDDMNHLKNKRIRSVADLLQDQLGLALARLENVVKGTISGAIRHKLIPTPQNLVTSTPLTTTYESFFGLHPLSQVLDRTNPLTQIVHGRKLSYLGPGGLTGRTANFRIRDIHPSHYGRICPIDTSEGINVGLIGSLSIHARIGDWGSLESPFYELFEKSKKARIRMLFLSPSQDEYYMIAAGNSLALNRGIQEEQAVPARYRQEFLTIAWEEVHLRSIFPFQYFSIGASLIPFIEHNDANRALMSSNMQRQAVPLSRSEKCIVGTGLERQVALDSGVPAIAEHEGKILYTDTEKIVFSGNGDTLSIPLIMYQRSNKNTCMHQKPQVRRGKCIKKGQILADGAATVGGELALGKNILVAYMPWEGYNFEDAVLISECLVYGDIYTSFHIRKYEIQTHVTTQGPERITKEIPHLEGRLLRNLDKNGIVMLGSWVETGDILVGKLTPQVAKESSYAPEDRLLRAILGIQVSTSKETCLKLPIGGRGRVIDVRWVQKKGGSSYNPEIIRVYISQKREIKVGDKVAGRHGNKGIISKILPRQDMPYLQDGRPVDMVFNPLGVPSRMNVGQIFECSLGLAGSLLDRHYRIAPFDERYEQEASRKLVFSELYEASKQTANPWVFEPEYPGKSRIFDGRTGDPFEQPVIIGKPYILKLIHQVDDKIHGRSSGHYALVTQQPLRGRSKQGGQRVGEMEVWALEGFGVAHILQEMLTYKSDHIRARQEVLGTTIIGGTIPKPEDAPESFRLLVRELRSLALELNHFLVSEKNFQINRKEV

Results are given in words; binding and its absence hold for the method and conditions named. Binding seen in cells or lysates may run through a third protein. A result given as binding can be weak or reduced; the word gives no strength.
